Laboratory results: PubChem BioAssay AID1224830 (NIAID, 2016)
The whole screen tested about 18,000 reagents; shown is a part drawn at random. Of all reagents, about 2,900 (16%) got an active call. 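Calls are made per well; low scores hint the gene aids the LPS response, high scores that it dampens it.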 A number with no mark means an inactive call. Reagents against one gene are numbered here. Repeated entries: four replicate wells of each siRNA pool.

- Purpose: 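Regulators of TLR4 signalling towards TNF-alpha in macrophage-like cells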 (primary screen)
- Cells: human THP-1 monocytic leukaemia cells, TNF dual-luciferase reporter clone, PMA-differentiated to macrophage-like cells
- Reagents: siRNA pool against human genes, 50 nM
- Time to read-out: LPS for 4 h, given about 3 days after siRNA transfection
- Treatment: bacterial LPS (TLR4 ligand), 10 ng/ml
- Measured: 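TNF firefly reporter luminescence divided by renilla, normalised to the plate median, then turned into a robust z-score for each replicate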
- Reading the numbers: TNF reporter robust z-score: higher = stronger TNF reporter response to LPS
- Call rule: 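a well is active when its z-score exceeds 2.8 or falls below -1.5; control wells carry no call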

The first 7 entries, ahead of the listing:
| gene symbol | reagent | TNF reporter robust z-score |
| --- | --- | --- |
| DAB2 | 1 | -1.04 |
| DAB2 | 1 | -0.08 |
| DAB2 | 1 | 1.02 |
| DAB2 | 1 | -0.09 |
| ITGA4 | 1 | 0.29 |
| ITGA4 | 1 | -0.03 |
| ITGA4 | 1 | 0 |

The list itself, from the first entry:
| gene symbol | reagent | TNF reporter robust z-score |
| --- | --- | --- |
| DAB2 | 1 | -1.04 |
| DAB2 | 1 | -0.08 |
| DAB2 | 1 | 1.02 |
| DAB2 | 1 | -0.09 |
| ITGA4 | 1 | 0.29 |
| ITGA4 | 1 | -0.03 |
| ITGA4 | 1 | 0 |
| ITGA4 | 1 | 0.9 |
| LYPD2 | 1 | -1.44 |
| LYPD2 | 1 | -1.05 |
| LYPD2 | 1 | -1.64 (active) |
| LYPD2 | 1 | -1.31 |
| ZNF662 | 1 | 1.47 |
| ZNF662 | 1 | 0.96 |
| ZNF662 | 1 | 0.17 |
| ZNF662 | 1 | 2.3 |
| COBL | 1 | 0.26 |
| COBL | 1 | 0.63 |
| COBL | 1 | 0.92 |
| COBL | 1 | 0.79 |
| ZNF550 | 1 | -1.02 |
| ZNF550 | 1 | 2.1 |
| ZNF550 | 1 | 0.96 |
| ZNF550 | 1 | -0.63 |
| BORCS8-MEF2B | 1 | -1.2 |
| BORCS8-MEF2B | 1 | -1.68 (active) |
| BORCS8-MEF2B | 1 | -1.69 (active) |
| BORCS8-MEF2B | 1 | -0.85 |
| ERCC6L2 | 1 | -0.64 |
| ERCC6L2 | 1 | -0.06 |
| ERCC6L2 | 1 | -0.49 |
| ERCC6L2 | 1 | -0.12 |
| ERCC6L2 | 2 | -0.28 |
| ERCC6L2 | 2 | -0.87 |
| ERCC6L2 | 2 | 0.02 |
| ERCC6L2 | 2 | 0.68 |
| NPIPB7 | 1 | -1.04 |
| NPIPB7 | 1 | -0.27 |
| NPIPB7 | 1 | 0.13 |
| NPIPB7 | 1 | -0.53 |
| INPP4B | 1 | -1.25 |
| INPP4B | 1 | 0.34 |
| INPP4B | 1 | -0.27 |
| INPP4B | 1 | -1.32 |
| LRRC71 | 1 | 0.63 |
| LRRC71 | 1 | -0.32 |
| LRRC71 | 1 | -1.03 |
| LRRC71 | 1 | -0.82 |
| HIPK1 | 1 | 0.5 |
| HIPK1 | 1 | 0.58 |
| HIPK1 | 1 | 1.59 |
| HIPK1 | 1 | 1.21 |
| NCK2 | 1 | 0.27 |
| NCK2 | 1 | 0.72 |
| NCK2 | 1 | 1.02 |
| NCK2 | 1 | 1.18 |
| SMNDC1 | 1 | -0.66 |
| SMNDC1 | 1 | -0.81 |
| SMNDC1 | 1 | -0.75 |
| SMNDC1 | 1 | -0.55 |
| CFAP47 | 1 | 1.34 |
| CFAP47 | 1 | 1.25 |
| CFAP47 | 1 | 0.88 |
| CFAP47 | 1 | -0.3 |
| CFAP47 | 2 | -0.26 |
| CFAP47 | 2 | 0.51 |
| CFAP47 | 2 | 0.15 |
| CFAP47 | 2 | 0.91 |
| SETBP1 | 1 | 0.6 |
| SETBP1 | 1 | 3.92 (active) |
| SETBP1 | 1 | 0.58 |
| SETBP1 | 1 | 0.34 |
| WLS | 1 | -0.55 |
| WLS | 1 | 0.05 |
| WLS | 1 | -0.27 |
| WLS | 1 | 0.57 |
| UBR1 | 1 | -0.17 |
| UBR1 | 1 | 1.5 |
| UBR1 | 1 | 1.01 |
| UBR1 | 1 | 1.73 |
| PLN | 1 | -0.94 |
| PLN | 1 | -0.46 |
| PLN | 1 | -1.53 (active) |
| PLN | 1 | -0.51 |
| WNT7A | 1 | 10.8 (active) |
| WNT7A | 1 | 4.14 (active) |
| WNT7A | 1 | 4.22 (active) |
| WNT7A | 1 | 0.55 |
| METRN | 1 | -0.24 |
| METRN | 1 | 1.27 |
| METRN | 1 | 0.57 |
| METRN | 1 | 0.14 |
| BRAP | 1 | -1.18 |
| BRAP | 1 | -0.32 |
| BRAP | 1 | -1.04 |
| BRAP | 1 | -0.41 |
| SGSM2 | 1 | 0.65 |
| SGSM2 | 1 | 1.07 |
| SGSM2 | 1 | 2.2 |
| SGSM2 | 1 | 5.55 (active) |
| MVB12A | 1 | -1.43 |
| MVB12A | 1 | -1.25 |
| MVB12A | 1 | -1.51 (active) |
| MVB12A | 1 | -1.04 |
| CACNA2D4 | 1 | 1.24 |
| CACNA2D4 | 1 | 1.36 |
| CACNA2D4 | 1 | 1 |
| CACNA2D4 | 1 | 1.99 |
| CHST10 | 1 | -0.9 |
| CHST10 | 1 | -1.33 |
| CHST10 | 1 | -0.91 |
| CHST10 | 1 | -0.79 |
